Data reported in US20140093884A1, “Process for Identifying Novel Anti-Inflammatory Molecules with Reduced Direct Transrepression of Genes Induced by Glucocorticoids” (UNIVERSITE DE STRASBOURG, priority 2011, published 2014).
For at least one compound, name, drawing or mass did not settle the structure.

Experiments:
[1] = tested on: IR nGRE genes CCND1, PRKCB, FSTL1; conditions: mouse, in vivo
Description: (§1) Gene transcripts in epidermis of WT and GRdim mutant mice topically treated as indicated for 6 hours are analysed by Q-RT-PCR.
(§2) Note that epidermis was treated as indicated with TPA, to activate NFκB and AP1 factors.

[2] = tested on: Cox2 gene (NFκB and AP1 binding sites); experiment: Q-RT-PCR of Cox2 in epidermis of WT and GRdim mice topically treated 6 hours (TPA-activated); format: in vivo, mouse; conditions: GRdim mutant epidermis, FIG. 14
Description: as §1, §2

C[C@@H]1C[C@H]2[C@@H]3CCC4=CC(=O)C=C[C@]4(C)[C@@]3(F)[C@@H](O)C[C@]2(C)[C@@]1(O)C(=O)CO [Dex, dexamethasone]
Dex-induced IR nGRE-mediated gene repression, effect of GRdim mutation [1]: abolished | expression of IR0 nGRE CCND1 gene [1]: repressed | expression of IR1 nGRE PRKCB gene [1]: repressed | expression of IR2 nGRE FSTL1 gene [1]: repressed | repression of IR0 nGRE CCND1 gene [1]: but not | repression of IR1 nGRE PRKCB gene [1]: but not | repression of IR2 nGRE FSTL1 gene [1]: but not | repression of the Cox2 gene [2]: not impaired
